Experimental data reported in article PMC5121620.
No constants are given. Whether binding was seen depends on the method and setting. For part of these data: Binding seen in cells or lysates may run through a third protein. Some binding calls cover weakened binding; strength is not graded here. For part of these data: Sequences can lack the tags named with a protein. Each block holds one binder with its values, some of them ahead of it.

The chains behind the UniProt entries cited, without tags or fusion partners. Where a name states a change or a piece, a line headed by the entry shows the natural chain unless it says otherwise.
UniProt Q96EB6: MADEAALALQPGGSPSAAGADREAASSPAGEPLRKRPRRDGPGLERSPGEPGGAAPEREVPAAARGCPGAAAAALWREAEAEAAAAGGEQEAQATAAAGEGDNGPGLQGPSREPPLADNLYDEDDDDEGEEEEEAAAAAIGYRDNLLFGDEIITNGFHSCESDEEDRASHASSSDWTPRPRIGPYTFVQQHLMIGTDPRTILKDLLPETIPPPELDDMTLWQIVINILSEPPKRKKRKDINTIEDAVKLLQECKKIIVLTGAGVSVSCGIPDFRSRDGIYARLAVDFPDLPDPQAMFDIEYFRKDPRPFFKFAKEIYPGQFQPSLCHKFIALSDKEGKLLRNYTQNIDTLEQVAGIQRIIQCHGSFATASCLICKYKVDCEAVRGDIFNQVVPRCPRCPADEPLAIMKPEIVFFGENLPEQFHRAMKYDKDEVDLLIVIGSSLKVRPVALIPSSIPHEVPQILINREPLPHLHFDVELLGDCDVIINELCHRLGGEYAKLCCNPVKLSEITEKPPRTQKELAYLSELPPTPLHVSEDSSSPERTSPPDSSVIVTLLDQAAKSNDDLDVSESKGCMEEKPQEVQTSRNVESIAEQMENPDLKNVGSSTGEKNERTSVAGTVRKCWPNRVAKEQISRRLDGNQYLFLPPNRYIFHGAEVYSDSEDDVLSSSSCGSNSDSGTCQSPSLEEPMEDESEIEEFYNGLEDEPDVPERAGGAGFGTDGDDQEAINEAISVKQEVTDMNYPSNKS

Tests used:
[1] = biological target: SIRT1, endogenous in HeLa-CHFR cells (human (endogenous in HeLa)) (UniProt Q96EB6); assay: co-IP; HeLa-CHFR stable cell lysates immunoprecipitated with anti-CHFR or anti-SIRT1 (controls: preimmune serum or IgG), immunoblot; in Fig. 4C cells were mock-treated or treated with 1 mM H2O2 for 6 h before the anti-SIRT1 IP
[2] = biological target: SIRT1 (transiently transfected conditions, Supplementary Fig. S1B) (UniProt Q96EB6); assay: co-IP; transiently transfected conditions with the CHFR-I306A mutant, with or without H2O2 treatment (Supplementary Fig. S1B)
GST-SIRT1 = GST-SIRT1 (UniProt Q96EB6); assay: pull-down; GST-SIRT1 (1 μg) and His-CHFR (1 μg) incubated with Glutathione Sepharose 4 Fast Flow for 1 h at 4 °C; immunoblot with anti-CHFR and anti-GST; both purified

binding [1]: binds
B1: CHFR in HeLa-CHFR stable cells (enzyme, UniProt Q96EP1 1-664)
chain: MERPEEGKQSPPPQPWGRLLRLGAEEGEPHVLLRKREWTIGRRRGCDLSFPSNKLVSGDHCRIVVDEKSGQVTLEDTSTSGTVINKLKVVKKQTCPLQTGDVIYLVYRKNEPEHNVAYLYESLSEKQGMTQESFEANKENVFHGTKDTSGAGAGRGADPRVPPSSPATQVCFEEPQPSTSTSDLFPTASASSTEPSPAGRERSSSCGSGGGGISPKGSGPSVASDEVSSFASALPDRKTASFSSLEPQDQEDLEPVKKKMRGDGDLDLNGQLLVAQPRRNAQTVHEDVRAAAGKPDKMEETLTCIICQDLLHDCVSLQPCMHTFCAACYSGWMERSSLCPTCRCPVERICKNHILNNLVEAYLIQHPDKSRSEEDVQSMDARNKITQDMLQPKVRRSFSDEEGSSEDLLELSDVDSESSDISQPYVVCRQCPEYRRQAAQPPHCPAPEGEPGAPQALGDAPSTSVSLTTAVQDYVCPLQGSHALCTCCFQPMPDRRAEREQDPRVAPQQCAVCLQPFCHLYWGCTRTGCYGCLAPFCELNLGDKCLDGVLNNNSYESDILKNYLATRGLTWKNMLTESLVALQRGVFLLSDYRVTGDTVLCYCCGLRSFRELTYQYRQNIPASELPVAVTSRPDCYWGRNCRTQVKAHHAMKFNHICEQTRFKN

binding [2]: binds
B2: CHFR-I306A (enzyme, UniProt Q96EP1 1-664)
chain: MERPEEGKQSPPPQPWGRLLRLGAEEGEPHVLLRKREWTIGRRRGCDLSFPSNKLVSGDHCRIVVDEKSGQVTLEDTSTSGTVINKLKVVKKQTCPLQTGDVIYLVYRKNEPEHNVAYLYESLSEKQGMTQESFEANKENVFHGTKDTSGAGAGRGADPRVPPSSPATQVCFEEPQPSTSTSDLFPTASASSTEPSPAGRERSSSCGSGGGGISPKGSGPSVASDEVSSFASALPDRKTASFSSLEPQDQEDLEPVKKKMRGDGDLDLNGQLLVAQPRRNAQTVHEDVRAAAGKPDKMEETLTCIACQDLLHDCVSLQPCMHTFCAACYSGWMERSSLCPTCRCPVERICKNHILNNLVEAYLIQHPDKSRSEEDVQSMDARNKITQDMLQPKVRRSFSDEEGSSEDLLELSDVDSESSDISQPYVVCRQCPEYRRQAAQPPHCPAPEGEPGAPQALGDAPSTSVSLTTAVQDYVCPLQGSHALCTCCFQPMPDRRAEREQDPRVAPQQCAVCLQPFCHLYWGCTRTGCYGCLAPFCELNLGDKCLDGVLNNNSYESDILKNYLATRGLTWKNMLTESLVALQRGVFLLSDYRVTGDTVLCYCCGLRSFRELTYQYRQNIPASELPVAVTSRPDCYWGRNCRTQVKAHHAMKFNHICEQTRFKN

binding (GST-SIRT1): binds
B3: His-CHFR (enzyme, UniProt Q96EP1 1-664)
chain: MERPEEGKQSPPPQPWGRLLRLGAEEGEPHVLLRKREWTIGRRRGCDLSFPSNKLVSGDHCRIVVDEKSGQVTLEDTSTSGTVINKLKVVKKQTCPLQTGDVIYLVYRKNEPEHNVAYLYESLSEKQGMTQESFEANKENVFHGTKDTSGAGAGRGADPRVPPSSPATQVCFEEPQPSTSTSDLFPTASASSTEPSPAGRERSSSCGSGGGGISPKGSGPSVASDEVSSFASALPDRKTASFSSLEPQDQEDLEPVKKKMRGDGDLDLNGQLLVAQPRRNAQTVHEDVRAAAGKPDKMEETLTCIICQDLLHDCVSLQPCMHTFCAACYSGWMERSSLCPTCRCPVERICKNHILNNLVEAYLIQHPDKSRSEEDVQSMDARNKITQDMLQPKVRRSFSDEEGSSEDLLELSDVDSESSDISQPYVVCRQCPEYRRQAAQPPHCPAPEGEPGAPQALGDAPSTSVSLTTAVQDYVCPLQGSHALCTCCFQPMPDRRAEREQDPRVAPQQCAVCLQPFCHLYWGCTRTGCYGCLAPFCELNLGDKCLDGVLNNNSYESDILKNYLATRGLTWKNMLTESLVALQRGVFLLSDYRVTGDTVLCYCCGLRSFRELTYQYRQNIPASELPVAVTSRPDCYWGRNCRTQVKAHHAMKFNHICEQTRFKN
